Most values lie at the floor of the assay. Slopes are relative: functional sequences can read slightly below zero.
Test system: Saccharomyces cerevisiae PS128 hsf1 delta, HSF1(1-493) fusion
Test: growth estimate (transactivation domain function in HSF1 fusion, heat-shock survival) (a.u. (slope of normalised read count over time)); higher = stronger growth at 37°C, i.e. more transactivation activity
Conditions: library: random library

Substance | growth estimate
SGICTPDGWTYGT | < -0.25
SGIRTS | < -0.25
SGIRYIQGCEQVRPSLKGM | -0.172
SGIVD | < -0.25
SGKKKHTFYSAHLRRLLYQD | < -0.25
SGKTREVSDSAISEWYREMA | < -0.25
SGKVL | < -0.25
SGLCTLRFRQSLFIYRG | < -0.25
SGLEVTLSLGQ | < -0.25
SGLFYTWM | -0.0009
SGLIW | < -0.25
SGLNGQRLRFSSCYRVKAVS | < -0.25
SGLRLL | < -0.25
SGLRQCC | < -0.25
SGLTCLCCA | < -0.25
SGLTKSPNSRKGVKDRER | < -0.25
SGLWEGEGSSG | < -0.25
SGMDRPSLVDQILPLGHVAL | < -0.25
SGMPNGQSRNPATLNSKFGQ | < -0.25
SGMVLDTLLADTPGDLV | < -0.25
SGN | < -0.25
SGNAKECFRHGLFVIRVEAA | < -0.25
SGNICSSHRSVSLWRIRIDR | < -0.25
SGPSR | < -0.25

Substance | growth estimate
SGPTAGVGQQEPDRWKPSVR | < -0.25
SGPTHKGQGIGHTSRV | < -0.25
SGQFFLLSGCLRASSWFGP | < -0.25
SGRDANPVMKEKDFILEATD | < -0.25
SGRKVLMQNPLLHGI | < -0.25
SGRKWRAFRIWAECC | < -0.25
SGRMGSSRSRRS | < -0.25
SGRPAAFGWSLLALLLDWSQ | < -0.25
SGRSGRLIRRAIRPLHGVAQ | < -0.25
SGRSLMVPGNSSQ | < -0.25
SGRSLQRSCIFFS | < -0.25
SGRVEYLGLVGVRRRRVTTQ | < -0.25
SGRVGDGGVT | < -0.25
SGRYTVTCRSSRTTGGELIS | < -0.25
SGSHTYCFRVSLQ | < -0.25
SGSISLGLNCMWLKSIRVSS | < -0.25
SGSPLILTVDSMSEANCLVL | < -0.25
SGSRPREHKLNLNVSRKFCG | < -0.25
SGSVLGGALKLNQRQRENQR | < -0.25
SGTGLSPAVRLMAGLFRRAP | < -0.25
SGTMRACRINLKLTGCEAKP | -0.246
SGTNEGEFEERKGSIPLYGP | < -0.25
SGTSRRLTHSRWSFLAAYQP | < -0.25
SGTWEV | < -0.25

A second format for part of the listing above:

| Substance | growth estimate |
| --- | --- |
| SGIRYIQGCEQVRPSLKGM | -0.172 |
| SGIVD | < -0.25 |
| SGKKKHTFYSAHLRRLLYQD | < -0.25 |
| SGKTREVSDSAISEWYREMA | < -0.25 |
| SGKVL | < -0.25 |
| SGLCTLRFRQSLFIYRG | < -0.25 |
| SGLEVTLSLGQ | < -0.25 |
| SGLFYTWM | -0.0009 |
| SGLIW | < -0.25 |
| SGLNGQRLRFSSCYRVKAVS | < -0.25 |
| SGLRLL | < -0.25 |
| SGLRQCC | < -0.25 |
| SGLTCLCCA | < -0.25 |
| SGLTKSPNSRKGVKDRER | < -0.25 |
| SGLWEGEGSSG | < -0.25 |
| SGMDRPSLVDQILPLGHVAL | < -0.25 |
| SGMPNGQSRNPATLNSKFGQ | < -0.25 |
| SGMVLDTLLADTPGDLV | < -0.25 |
| SGN | < -0.25 |
| SGNAKECFRHGLFVIRVEAA | < -0.25 |
| SGNICSSHRSVSLWRIRIDR | < -0.25 |
| SGPSR | < -0.25 |
| SGPTAGVGQQEPDRWKPSVR | < -0.25 |
| SGPTHKGQGIGHTSRV | < -0.25 |
| SGQFFLLSGCLRASSWFGP | < -0.25 |
| SGRDANPVMKEKDFILEATD | < -0.25 |
| SGRKVLMQNPLLHGI | < -0.25 |
| SGRKWRAFRIWAECC | < -0.25 |
| SGRMGSSRSRRS | < -0.25 |
| SGRPAAFGWSLLALLLDWSQ | < -0.25 |

Next entries follow:

Substance | growth estimate
SGVAGVGSKHRQELGFIPLR | < -0.25
SGVDYLHWNLVPQSAHIWNW | < -0.25
SGVWESAHVARRDIIHSMGG | < -0.25
SGVYKPLASIPDRRATYWDS | < -0.25
SGWSKRPRIQSASATPPLSA | < -0.25
SGYKVRGGSGRKVTLRG | < -0.25
SGYQVCSCGADLPYRSRLRL | < -0.25
SGYTLNYARFLGSVALFVRY | < -0.25
SHCPQVVIIRRRCTRFCPNV | < -0.25
SHCSNPLQYN | < -0.25
SHDEREMKCIMTPREI | < -0.25
SHDSQCTQFAR | -0.246
SHELAPGENFPWHDPSSHTV | < -0.25
SHGLPSPGLHVMAEPTWNQA | < -0.25
SHGNTSIWKCREKFPPRTSF | < -0.25
SHGRGEFASKLWMMLSYHFD | < -0.25
SHIAIGKLLVILRAAPATEG | < -0.25
SHL | < -0.25
SHLSSGERYDSFPHGRTTLT | < -0.25
SHNRWVRRK | < -0.25
SHQEY | < -0.25
SHQRLANDQLSVE | -0.246
SHRGEARNPGFTTGWLM | < -0.25
SHRGTVHRGPTGCLNVKRPV | < -0.25

Substance | growth estimate
SHRMHVRLQGNRYNS | < -0.25
SHSGASGTVVLEIHACAQVA | < -0.25
SHSKTQ | < -0.25
SHSSR | < -0.25
SHTLEGSWMPDTRGSLRSDL | < -0.25
SHTRGSYVCTLVQCSVVL | < -0.25
SHTSRIGQLS | < -0.25
SHVCGDLRRAIACARCTTNH | < -0.25
SHWWNV | < -0.25
SHYWGSREHGPLDDGGRLWS | < -0.25
SIAEDTMDMWAGWYLPRYPA | -0.0713
SIAFRGLGWLTDVPVRNHFS | < -0.25
SIAINVVIAESQEPCLQFRT | < -0.25
SIANQGGWYGGVGHRHVFAS | < -0.25
SIDEKSIDAMAGNVSVEREV | < -0.25
SIDGYMGPWRDKDWFTP | < -0.25
SIEAAS | -0.243
SIEEGKQSGHYIL | < -0.25
SIFRVERCLGFNGRHRYLSG | < -0.25
SIFYTKVMRKGTSILN | < -0.25
SIGAQCVARKVSVFTYIWPQ | < -0.25
SIGDEARPACCAACVRSVRR | < -0.25
SIGVDL | < -0.25
SIHEGRLGEH | < -0.25

Substance | growth estimate
SIIRNVRRLRSVR | < -0.25
SIIRWLSHMSDLFGRDIFGD | < -0.25
SIKCN | < -0.25
SIKHVDQMWYSCGGNFDAAI | -0.225
SIKTNKRLRYRMGRSRASAQ | < -0.25
SIKTTKTRLRKSP | < -0.25
SILANKAGLPDGAQGRPTAW | < -0.25
SILLYVSIGFQ | < -0.25
SILRASKEPLGIVHLGSRGL | < -0.25
SILTLRALMSL | < -0.25
SILVYGIPYLFLCKTVILDG | < -0.25
SILYSCGDPQELCSSSVWWA | -0.174
SIMQPHESFLAPWSTGD | < -0.25
SINGGHLKEHLYRTAQGPAR | < -0.25
SINHSAP | < -0.25
SINQKSLGTYEQYGNKRPGP | < -0.25
SINREFKHMLDERMYWGVLE | < -0.25
SIPSGVTPE | < -0.25
SIRGGHSREVGKYHQQ | < -0.25
SIRILTARYHAVTGYSFPSM | < -0.25
SIRRLT | < -0.25
SIRRTRVYLSPGLNRHGSYA | < -0.25
SIRSAGHACKSIKMIKLFNV | < -0.25
SIRSTRNGAYRPRPDLDMNR | < -0.25

Substance | growth estimate
SIRVGCVRTTRDLSNSSPSF | < -0.25
SIRVVISWSPVRCLGVRDLT | < -0.25
SIS | < -0.25
SISCQK | < -0.25
SISGLPDRR | < -0.25
SISKGPAIPGPSSVARMWAP | < -0.25
SISSFALQL | < -0.25
SISTQAGDQDNSTWAPFESA | < -0.25
SISVRRGVA | < -0.25
SITLLPTLGGDVKEPGVERV | < -0.25
SIVLQAEALCSIIRASRLPE | < -0.25
SIVTYRAWNHLSCSLVASVL | < -0.25
SIWMHS | < -0.25
SIYRPRVWGPEDLNRNQLRS | < -0.25
SKATSRQRYARVSLRHRWRG | < -0.25
SKCDSSIELMNRIESQGSGQ | < -0.25
SKCLCCAPTLTKQWASDSLG | < -0.25
SKCPCPRTGDSL | < -0.25
SKEVAAQLIGTSRL | < -0.25
SKFRNYTGISENLSVSRLMD | < -0.25
SKG | < -0.25

— the supplement of paper PMC5949888
